Measurements published in patent US20180327752A1 (Stanford University, published 2018).
Results are given in words; binding and its absence hold for the method and conditions named. Some binding calls cover weakened binding; strength is not graded here. Sequences can lack the tags named with a protein.

Amino acid sequences for entries named in this document (tags omitted).
UniProt P03135: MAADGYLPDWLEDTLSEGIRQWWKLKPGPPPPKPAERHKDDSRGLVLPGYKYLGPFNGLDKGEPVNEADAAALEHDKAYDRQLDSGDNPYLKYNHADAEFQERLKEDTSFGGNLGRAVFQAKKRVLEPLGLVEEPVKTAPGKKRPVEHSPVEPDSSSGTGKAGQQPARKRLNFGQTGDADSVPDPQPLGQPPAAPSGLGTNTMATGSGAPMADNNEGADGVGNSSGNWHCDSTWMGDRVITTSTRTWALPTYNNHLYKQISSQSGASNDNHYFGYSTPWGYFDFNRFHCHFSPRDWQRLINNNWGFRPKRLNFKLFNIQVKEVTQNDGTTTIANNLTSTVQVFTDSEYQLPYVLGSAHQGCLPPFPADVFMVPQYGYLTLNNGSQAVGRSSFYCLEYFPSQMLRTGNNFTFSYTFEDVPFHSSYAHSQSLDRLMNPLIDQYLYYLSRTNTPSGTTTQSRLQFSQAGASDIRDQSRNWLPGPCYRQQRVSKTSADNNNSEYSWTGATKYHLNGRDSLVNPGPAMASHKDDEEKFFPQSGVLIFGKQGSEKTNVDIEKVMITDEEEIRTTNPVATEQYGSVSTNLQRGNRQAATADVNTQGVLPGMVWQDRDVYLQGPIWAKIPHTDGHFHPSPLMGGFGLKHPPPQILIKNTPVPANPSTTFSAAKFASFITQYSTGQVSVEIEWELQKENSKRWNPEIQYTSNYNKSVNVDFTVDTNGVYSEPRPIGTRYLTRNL

Tests used:
[1] = target: AAV2 particles (adeno-associated virus serotype 2 capsid) (adeno-associated virus serotype 2) (UniProt P03135); experiment: ELISA with MBP control; SPR
[2] = target: AAV2 particles (adeno-associated virus serotype 2 capsid) (adeno-associated virus serotype 2) (UniProt P03135); experiment: ELISA, AAV2 particles coated
[3] = target: AAV2 particles (adeno-associated virus serotype 2 capsid) (adeno-associated virus serotype 2) (UniProt P03135); experiment: summary sentence of Example 1 (ELISA, SPR)
[4] = target: AAV2 particles (adeno-associated virus serotype 2 capsid) (adeno-associated virus serotype 2) (UniProt P03135); experiment: ELISA, AAV2 VLPs coated, detection with anti-MBP-HRP
[5] = target: AAV2 particles (adeno-associated virus serotype 2 capsid) (adeno-associated virus serotype 2) (UniProt P03135); experiment: ELISA: plates coated with AAV2 virus-like particles, soluble AAVR (MBP-PKD1-5) detected with anti-MBP-HRP, A450
[6] = target: AAV2 particles (adeno-associated virus serotype 2 capsid) (adeno-associated virus serotype 2) (UniProt P03135); experiment: SPR (BIAcore X): His-tagged soluble AAVR immobilised on a CM5 chip, AAV-2 particles as analyte at 100, 250, 500 and 1000 nM

Measured: binding

B1: soluble AAVR (E. coli-expressed recombinant fusion between maltose-binding protein and AAVR PKD domains 1-5) (receptor)
chain: VSAGESVQITLPKNEVQLNAYVLQEPPKGETYTYDWQLITHPRDYSGEMEGKHSQILKLSKLTPGLYEFKVIVEGQNAHGEGYVNVTVKPEPRKNRPPIAIVSPQFQEISLPTTSTVIDGSQSTDDDKIVQYHWEELKGPLREEKISEDTAILKLSKLVPGNYTFSLTVVDSDGATNSTTANLTVNKAVDYPPVANAGPNQVITLPQNSITLFGNQSTDDHGITSYEWSLSPSSKGKVVEMQGVRTPTLQLSAMQEGDYTYQLTVTDTIGQQATAQVTVIVQPENNKPPQADAGPDKELTLPVDSTTLDGSKSSDDQKIISYLWEKTQGPDGVQLENANSSVATVTGLQVGTYVFTLTVKDERNLQSQSSVNVIVKEEINKPPIAKITGNVVITLPTSTAELDGSKSSDDKGIVSYLWTRDEGSPAAGEVLNHSDHHPILFLSNLVEGTYTFHLKVTDAKGESDTDRTTVEVKPDPR
notes: Used in the ELISA on AAV2 VLPs and in the neutralization assay; also called rAAVR1-5; MBP-AAVR PKD 1-5
binds: [1] | [2] | [3] | [4] | [5]

B2: His-tagged soluble AAVR (His-tagged MBP fusion with AAVR PKD domains 1-5) (receptor)
chain: B1 chain
notes: Construct immobilised on the CM5 chip for SPR; also called AAVR (SPR ligand); not shown: His tag
binds: [6]
